According to the supplement of paper PMC6078165:

Test system: Hs578T
Assay: relative JC-1 red fluorescence (viability) vs pre-drug, coculture with fibroblast (fraction); higher = more viable cancer cells
Experimental: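 JC-1 labelled TNBC cells cocultured 1:1 (1,500 cells each) with CellTrace Violet stained primary or stromal fibroblasts in 384-well plates in FluoroBrite medium, treated with one of 42 anticancer drugs at 0.1, 1, 10 or 100 uM. JC-1 red fluorescence (mitochondrial integrity in cancer cells only) was read by plate reader every 8 h for 72 h. Values are normalised to each well's pre-drug value. The stock of one drug was tenfold lower, so its dose labels may be too high.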

CC(C)C[C@H](NC(=O)[C@H](Cc1ccccc1)NC(=O)c1cnccn1)B(O)O [Bortezomib]
relative JC-1 red fluorescence
Conditions	8 h	16 h	24 h	32 h	40 h	48 h	56 h	64 h	72 h
0.1 µM	0.8484	0.655	0.571	0.568	0.534	0.526	0.543	0.532	0.556
1 µM	0.906	0.652	0.534	0.52	0.49	0.475	0.478	0.457	0.462

relative JC-1 red fluorescence
Conditions	8 h	16 h	24 h	32 h	40 h	48 h	56 h	64 h	72 h
0.1 µM, coculture fibroblast: C12385	0.8	0.663	0.576	0.464	0.434	0.44	0.443	0.466	0.488
0.1 µM, coculture fibroblast: H6013	0.829	0.656	0.588	0.605	0.626	0.662	0.676	0.702	0.698
0.1 µM, coculture fibroblast: H6019	0.757	0.633	0.652	0.586	0.601	0.614	0.63	0.654	0.669
0.1 µM, coculture fibroblast: H6076	0.882	0.6726	0.604	0.623	0.622	0.655	0.672	0.703	0.737
0.1 µM, coculture fibroblast: H6231	0.8239	0.671	0.624	0.617	0.581	0.591	0.581	0.594	0.619
0.1 µM, coculture fibroblast: HADF	0.844	0.727	0.648	0.632	0.651	0.675	0.677	0.696	0.702
0.1 µM, coculture fibroblast: HCFa	0.808	0.634	0.572	0.547	0.5468	0.578	0.582	0.588	0.579
0.1 µM, coculture fibroblast: HCPF	0.8571	0.659	0.571	0.564	0.523	0.527	0.534	0.534	0.539
0.1 µM, coculture fibroblast: HHSteC	0.8379	0.693	0.63	0.618	0.625	0.618	0.633	0.634	0.629
0.1 µM, coculture fibroblast: HMF	0.8491	0.686	0.6	0.594	0.561	0.558	0.575	0.59	0.614
0.1 µM, coculture fibroblast: HPFa	0.885	0.745	0.701	0.696	0.722	0.735	0.737	0.754	0.745
0.1 µM, coculture fibroblast: HUF	0.8113	0.625	0.587	0.506	0.483	0.489	0.5	0.524	0.54
0.1 µM, coculture fibroblast: Hs27A	0.827	0.6823	0.589	0.565	0.554	0.58	0.572	0.587	0.573
0.1 µM, coculture fibroblast: Hs343T	0.8807	0.6668	0.549	0.549	0.509	0.513	0.519	0.534	0.57
0.1 µM, coculture fibroblast: WS1	0.784	0.555	0.523	0.426	0.414	0.443	0.453	0.487	0.512
1 µM, coculture fibroblast: C12385	0.787	0.624	0.496	0.409	0.382	0.365	0.365	0.377	0.39
1 µM, coculture fibroblast: H6013	0.837	0.645	0.55	0.553	0.543	0.551	0.547	0.551	0.538
1 µM, coculture fibroblast: H6019	0.74	0.552	0.519	0.467	0.473	0.485	0.493	0.513	0.514
1 µM, coculture fibroblast: H6076	0.924	0.684	0.486	0.468	0.45	0.459	0.473	0.485	0.502
1 µM, coculture fibroblast: H6231	0.8624	0.6472	0.481	0.509	0.4569	0.451	0.429	0.422	0.426
1 µM, coculture fibroblast: HADF	0.839	0.666	0.539	0.498	0.478	0.476	0.457	0.45	0.437
1 µM, coculture fibroblast: HCFa	0.799	0.589	0.482	0.465	0.443	0.442	0.428	0.419	0.398
1 µM, coculture fibroblast: HCPF	0.9102	0.7015	0.499	0.499	0.465	0.464	0.468	0.45	0.455
1 µM, coculture fibroblast: HHSteC	0.902	0.728	0.665	0.644	0.643	0.645	0.653	0.659	0.642
1 µM, coculture fibroblast: HMF	0.8724	0.646	0.477	0.473	0.432	0.428	0.411	0.411	0.419
1 µM, coculture fibroblast: HPFa	0.887	0.673	0.643	0.636	0.634	0.63	0.606	0.604	0.575
1 µM, coculture fibroblast: HUF	0.791	0.583	0.4827	0.408	0.379	0.366	0.3533	0.35316	0.3587
1 µM, coculture fibroblast: Hs27A	0.819	0.691	0.613	0.615	0.58	0.576	0.55	0.546	0.516
1 µM, coculture fibroblast: Hs343T	0.942	0.694	0.413	0.387	0.337	0.331	0.323	0.329	0.347
1 µM, coculture fibroblast: WS1	0.781	0.51907	0.487	0.393	0.374	0.3761	0.3695	0.389	0.399

The reference is the same well before dosing, and untreated signal decays as well.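 Fibroblast labels name human fibroblasts: mostly primary ones from tissues such as uterus (C12385, HUF), lung (H6013), bone (Hs27A), adrenal (HADF) and skin (WS1), plus mammary HMF and breast cancer-associated Hs343T. The cancer cells are basal-like or mesenchymal-like triple-negative breast cancer lines. The paper calls a changed response a hit when it shifts by more than 3x the replicate standard deviation. The tissue of the other fibroblasts is not given here.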
